Assay results taken from PubChem BioAssay AID651640 (Broad Institute, 2012).
The whole screen tested about 350,000 compounds, of which about 6,000 (1.7%) were called active. The inconclusive results got no clear call from the source; some entries with a clear call stand among them for comparison. Rule as the data show it: active = CPE inhibition above about 20% (passing the limit was not always enough); inconclusive = no clear call, values can overlap the other calls; tested in BHK-21 cells. The source holds several records for some structures; these can differ, active in one and inactive in another.

Experiment: protection of cells from dengue 2 killing – plate reader, single concentration, primary screen (AID 651640);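 also: 0% = median of neutral control wells and 100% = median of positive control wells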
Conditions: DENV2-infected cells, cytopathic effect rescue, at 9.99 µM, stronger effect = higher value
For COc1ccc2[nH]c3c(c2c1)CCN1C(=O)C(CC(=O)NC/C=C(\C)CCC=C(C)C)C[C@H](C(=O)N2CCOCC2)[C@@]31CCC1CCCC1 (stereo partly specified), the CPE inhibition was inconclusive: 22.1%.
For CC(C)(C)c1cc(C(=O)Nc2ccc(F)cc2)n(Cc2ccc(F)cc2)n1, the CPE inhibition was inconclusive: 21.2%.
With COc1ccc(NC(=O)c2ccc(N3C(=O)C4CC=C(Cl)CC4C3=O)cc2)cc1 (stereo unspecified) the CPE inhibition was inconclusive: 41.2%.
In the case of O=C(CCS(=O)(=O)c1ccc(Br)cc1)N1CCN(c2ccc(F)cc2)CC1, the CPE inhibition is reported as inconclusive: 35.6%.
For CCOC(=O)Nc1ccc2c(c1)N(C(=O)CN(C)C)c1ccccc1CC2, the CPE inhibition was inconclusive: 39.3%.
For COc1ccc(S(=O)(=O)N2CCN(C)CC2)cn1, the CPE inhibition was inconclusive: 31.9%.
In the case of CC(C)=C1C2CCC1C1C(=O)N(NC(=O)c3ccco3)C(=O)C21 (stereo unspecified), the CPE inhibition is reported as inconclusive: 42.9%.
For C[C@H]1CN([C@@H](C)CO)S(=O)(=O)c2ccc(-c3ccccc3F)cc2O[C@H]1CN(C)S(C)(=O)=O, the CPE inhibition was inconclusive: 20.1%.
In the case of CCOC(=O)N1CCN(C(=O)Nc2ccccc2)CC1, the CPE inhibition is reported as inconclusive: 21.8%.
With Cc1ccc(S(=O)(=O)Nc2ccc3c(c2)CC(=O)N([C@H](C)CO)C[C@@H](C)[C@@H](CN(C)S(=O)(=O)c2ccc(Cl)cc2)O3)cc1 the CPE inhibition was inconclusive: 48.6%.
With COc1ccccc1N1CCN(CCCCN2C(=O)c3ccccc3C2=O)CC1 the CPE inhibition was inconclusive: 27.2%.
With C[C@@H]1CN([C@H](C)CO)S(=O)(=O)c2ccc(-c3ccccc3)cc2O[C@@H]1CN(C)C(=O)C1CCCCC1 the CPE inhibition was inconclusive: 21.6%.
In the case of Cc1ccc(-c2ccc(C3[C@H]4CNC[C@@H]3N4Cc3ccccc3F)cc2)cc1 (stereo partly specified), the CPE inhibition is reported as inconclusive: 52%.
In the case of C[C@@H]1CN([C@H](C)CO)C(=O)Cc2cc(NC(=O)c3ccncc3)ccc2O[C@H]1CN(C)C(=O)Nc1ccccc1, the CPE inhibition is reported as inconclusive: 21%.
With CSCCC(NC(=O)c1ccccc1)C(=O)NCCCSc1ccccc1 (stereo unspecified) the CPE inhibition was inactive: -5.1%.
In the case of CCCCn1c(N)c(N(CC(C)C)C(=O)c2ccc([N+](=O)[O-])o2)c(=O)[nH]c1=O, the CPE inhibition is reported as inconclusive: 41.4%.
For CO[C@H]1CN(C)C(=O)c2cc(NC(=O)Nc3ccccc3)ccc2OC[C@H](C)N(C(=O)CN(C)C)C[C@H]1C, the CPE inhibition was inactive: -8.6%.
In the case of C[C@@H]1CCCCO[C@H](CN(C)Cc2ccncc2)[C@H](C)CN([C@@H](C)CO)C(=O)c2cc(NC(=O)Nc3ccc(F)cc3)ccc2O1, the CPE inhibition is reported as inconclusive: 51%.
For COc1ccc(CNC(=O)C(C)N2C(=O)NC3(CCCCCCC3)C2=O)cc1 (stereo unspecified), the CPE inhibition was active: 86.7%.
In the case of CC(=O)Nc1cccc(NC(=O)CSc2nnc3ccc(-c4cccnc4)nn23)c1, the CPE inhibition is reported as inconclusive: 28.7%.
With CNC(=O)C[C@H]1CC[C@@H]2[C@@H](COc3ccc(NC(=O)c4ccccc4OC)cc3C(=O)N2C)O1 the CPE inhibition was inactive: 17.3%.
For COc1ccc(-c2cc(C(=O)Nc3ccc(NC(C)=O)cc3)[nH]n2)c(C)c1, the CPE inhibition was inconclusive: 38.7%.
In the case of COc1ccc(N2CCN(C(=O)CNC(=O)Cn3cnc4sc(C)c(C)c4c3=O)CC2)cc1, the CPE inhibition is reported as inconclusive: 48.8%.
In the case of CC(=O)C[C@H]1c2cc(C(F)(F)F)ccc2S(=O)(=O)N1Cc1ccccc1, the CPE inhibition is reported as inconclusive: 55.4%.
In the case of Cc1ccc(S(=O)(=O)CCC(=O)NCCC2=CCCCC2)cc1, the CPE inhibition is reported as inconclusive: 39.3%.
With CC(C)NC(=O)N(C)C[C@H]1Oc2c(cccc2N(C)C)C(=O)N([C@@H](C)CO)C[C@H]1C the CPE inhibition was active: 21.8%.
With Cc1ccccc1S(=O)(=O)Cc1ccc(C(=O)NCCN(Cc2ccccc2)C(C)C)o1 the CPE inhibition was inconclusive: 42.1%.
With COc1ccccc1C(=O)NC(=O)COC(=O)/C(=C/c1ccccc1)NC(C)=O the CPE inhibition was inconclusive: 45.4%.
For COC[C@@H]1CCCN1c1ccc2c(c1)O[C@H](COCc1ccccc1)CN([C@@H](C)c1ccccc1)S2(=O)=O, the CPE inhibition was inconclusive: 53.8%.
With Cc1cccc(S(=O)(=O)N2CC[C@@H]3[C@H]2c2cc(-c4ccccc4F)ccc2N(C)[C@H]3CO)c1 the CPE inhibition was inconclusive: 40.1%.
With O=C(O)c1cc(-c2cccnc2)nc2ccccc12 the CPE inhibition was inconclusive: 30%.
For COc1ccc(OC)c(-c2cc(C(=O)N/N=C/c3cc(OC)c(OC)cc3OC)c3ccccc3n2)c1, the CPE inhibition was inconclusive: 36.2%.
For Cc1ccc(S(=O)(=O)Nc2ccc3c(c2)C(=O)N([C@@H](C)CO)C[C@H](C)[C@@H](CN(C)C(=O)Nc2ccc(F)cc2)O3)cc1, the CPE inhibition was inactive: 6.39%.
In the case of C[C@@H]1CN([C@@H](C)CO)C(=O)c2cccc(NC(=O)c3nc4ccccc4s3)c2O[C@H]1CN(C)S(=O)(=O)c1cccs1, the CPE inhibition is reported as inconclusive: 22.3%.
With O=C(Oc1ccccc1)c1ccccc1C(=O)Oc1ccccc1 the CPE inhibition was active: 27.1%.
With CCOC(=O)c1c2ccc(OCC(=O)NN)cc2n2ccccc12 the CPE inhibition was inactive: 1.98%.
In the case of CCc1nnc(NC(=O)c2ccc(S(=O)(=O)N3CCCCC3)cc2)s1, the CPE inhibition is reported as inactive: 0.94%.
With COc1ccc(N2CCN(C(=O)c3ccccc3N(C)S(=O)(=O)c3ccccc3)CC2)cc1 the CPE inhibition was inconclusive: 27.3%.
For CC(C)CC#Cc1ccc2c(c1)O[C@H](CN(C)C)[C@@H](C)CN([C@@H](C)CO)S2(=O)=O, the CPE inhibition was inconclusive: 24.6%.
For CCc1nc2ccc(C(=O)N3CCN(C(=O)c4ccco4)CC3)cn2c1N(C)Cc1nccs1, the CPE inhibition was inconclusive: 57.4%.
In the case of Cc1ccccc1S(=O)(=O)N1CC[C@@H]2[C@@H](CO)N(C)c3ccc(-c4cccc(C#N)c4)cc3[C@@H]21, the CPE inhibition is reported as inconclusive: 36.6%.
With Cn1cnc(S(=O)(=O)N2C[C@@H]3N[C@H](C2)C3c2ccc(-c3ccccc3F)cc2)c1 (stereo partly specified) the CPE inhibition was active: 72.2%.
In the case of CCc1ccc(N2C(=O)CN(Cc3ccc(OC)c(OC)c3)C2=S)cc1, the CPE inhibition is reported as inconclusive: 53.3%.
For COc1ccc([Si](C)(C)[C@H]2[C@H](CCn3cc(CCO)nn3)O[C@@]3(C(=O)N(C)c4c(Br)cc(C)cc43)[C@@H]2C)cc1, the CPE inhibition was inactive: -1.71%.
With Cc1ccc(Nc2nc(NCCO)nc(N3CCCC3)n2)cc1 the CPE inhibition was active: 59.8%.
In the case of CCOC(=O)c1cc2c(=O)n3ccccc3nc2n(Cc2ccco2)c1=NC(=O)c1ccc(OC)cc1, the CPE inhibition is reported as inactive: -9.73%.
With COc1ccc(NC(=O)Nc2ccc3c(c2)C(=O)N([C@H](C)CO)C[C@@H](C)[C@H](CN(C)S(=O)(=O)c2ccc(F)cc2)OCCCC[C@@H](C)O3)cc1 the CPE inhibition was inactive: 3.57%.
For C[C@H](CCC(=O)O)[C@H]1CC[C@H]2[C@@H]3[C@H](O)C[C@@H]4C[C@H](O)CC[C@]4(C)[C@H]3C[C@H](O)[C@]12C, the CPE inhibition was inconclusive: 50.8%.
For O=C(C1CC1)N1C[C@@H]2[C@H](c3ccccc31)[C@@H](CO)N2C(=O)c1ccccc1, the CPE inhibition was inactive: -0.151%.
For COc1cccc(-c2ccc3c(c2)N(Cc2cccc(F)c2)C(=O)C(C)S3)c1 (stereo unspecified), the CPE inhibition was inactive: -5.68%.
For C=Cc1ccc(CC2(C)C(=O)Nc3ccc(Cl)cc32)cc1 (stereo unspecified), the CPE inhibition was inconclusive: 21.2%.
In the case of Cc1ccc(CNS(=O)(=O)c2ccc(Br)s2)cc1, the CPE inhibition is reported as inconclusive: 27%.
For O=C(C[C@@H]1C[C@@H]2c3cc(NC(=O)Cc4ccncc4)ccc3O[C@@H]2[C@H](CO)O1)NCc1ccc(-c2ccccc2)cc1, the CPE inhibition was inconclusive: 28.7%.
In the case of O=C(C[C@H]1CC[C@@H](NC(=O)Nc2ccccc2F)[C@H](CO)O1)NCc1ccc(-c2ccccc2)cc1, the CPE inhibition is reported as inconclusive: 57.6%.
In the case of C[C@@H]1CN([C@H](C)CO)C(=O)c2cc(N(C)C)ccc2O[C@@H]1CN(C)Cc1ccccc1, the CPE inhibition is reported as inactive: 5.87%.
With CC1(C)OC(=O)C2=C(C[C@@H](C3CCCC3)O[C@H]2CCc2cccc(Cl)c2)O1 the CPE inhibition was inactive: 8.06%.
For O=C(Nc1cccc(Cl)c1)c1csc([C@@H]2C[C@H](O)[C@@H](CO)O2)n1, the CPE inhibition was active: 36%.
With CS(=O)(=O)N1CCC(C(=O)Nc2cccc(Cl)c2Cl)CC1 the CPE inhibition was inconclusive: 70.4%.
In the case of O=C(Nc1ccc2c(c1)[C@H]1C[C@@H](CC(=O)N3CCCCC3)O[C@H](CO)[C@H]1O2)C1CCOCC1, the CPE inhibition is reported as inconclusive: 25.7%.
With CCCCn1nnnc1C(c1cc2ccccc2o1)N1CCOCC1 (stereo unspecified) the CPE inhibition was inconclusive: 53.5%.
In the case of COc1ccc(NC(=O)CN(C)C(=O)c2ccc(N3CCCC3)c([N+](=O)[O-])c2)cc1, the CPE inhibition is reported as inconclusive: 21.8%.
For COc1ccc2c(c1)OC[C@H]1[C@H]2N2C(=O)c3ccc(F)cc3NC(=O)[C@@]2(C)[C@H]1c1ccccc1, the CPE inhibition was active: 54.6%.
In the case of Cc1noc(C)c1S(=O)(=O)Nc1ccc2c(c1)CC(=O)N([C@@H](C)CO)C[C@@H](C)[C@H](CN(C)CC1CC1)O2, the CPE inhibition is reported as inactive: -0.14%.
With O=C(c1cccc(C(F)(F)F)c1)C1CCCN(C(=O)Cn2cncn2)C1 (stereo unspecified) the CPE inhibition was inactive: 18.9%.
With C[C@H](NC(=O)c1[nH]cnc1C(=O)Nc1ccc(CNC(=O)OC(C)(C)C)cc1)C(=O)OC(C)(C)C the CPE inhibition was inconclusive: 20.6%.
For O=C(NNC(=O)c1ccncc1)Nc1ccc(Br)cc1, the CPE inhibition was inconclusive: 24.9%.
In the case of Cc1ccccc1-c1ccc2c(c1)O[C@H](CN(C)C(=O)c1ccccn1)[C@H](C)CN([C@H](C)CO)S2(=O)=O, the CPE inhibition is reported as inactive: -3.34%.
In the case of Cc1ccc(S(=O)(=O)N(C)C[C@H]2Oc3ccc(NS(=O)(=O)c4ccc(Cl)cc4)cc3CC(=O)N([C@H](C)CO)C[C@H]2C)cc1, the CPE inhibition is reported as inactive: -2.78%.
With Cc1cc(=O)oc(C)c1C(=O)NCCC(C)C the CPE inhibition was inactive: -1.15%.
For CCN(CC)CCNC(=S)Nc1ccc2nc(N3CCN(CC)CC3)cc(C)c2c1, the CPE inhibition was inactive: 6.13%.
With C[C@H](CO)N1C[C@H](C)[C@@H](CN(C)Cc2ccccc2)Oc2cc(C#Cc3ccccn3)ccc2S1(=O)=O the CPE inhibition was inconclusive: 23.2%.
